Assay results from PubChem BioAssay AID540256 (National Center for Advancing Translational Sciences (NCATS), 2011).
In all, about 300,000 compounds went through this assay and about 3,700 (1.2%) were called active. Inconclusive means that the source gave no clear call. Such entries were picked first, then a sample of the others. Calls follow the shape of the full dose curve; tested in HEK293 cells. Where the call is inconclusive, the potency comes from a doubtful curve fit.
% is scaled to controls: 0 for no effect and ±100 for the full control effect; potency is read from the fitted curve at half-maximal effect.

Test: qHTS for Inhibitors of binding or entry into cells for Lassa Virus; also: nearly all actives have a fitted effect of over 50% in size
Details: Lassa virus pseudotype entry inhibition, cell reporter; activity change, negative = inhibition: at 37.9 µM (top of the series) unless noted
In the case of `NC1=C(Br)C(=O)c2ncccc2C1=O`, the Potency is reported as inconclusive: 2.82 µM [inhibitor, full curve, poor fit].
With `CCC(Cc1ccccc1)NC(=O)C1CCN(S(=O)(=O)c2c(C)noc2C)CC1` (stereo not drawn) the Potency was inconclusive: 6.51 µM [inhibitor, partial curve].
In the case of `COc1ccc(/C=N/N=C2/NC(=O)C(CC(=O)O)S2)cc1OCc1ccccc1Cl` (stereo not drawn), the “activity change, negative = inhibition” value is reported as inactive: -12.7%.
For `CCNc1ccc(Br)cc(C(=O)/C=C/c2ccccc2Cl)c1=O`, the Potency was inconclusive: 25.9 µM [inhibitor, single point].
With `COC(=O)c1cccc(N/C=C(\[N+](=O)[O-])S(=O)(=O)c2ccccc2)c1` the “activity change, negative = inhibition” value was inactive: -0.888%.
For `O=C1COc2ccc(S(=O)(=O)Nc3ccc4c(c3)OCO4)cc2N1`, the Potency was inconclusive: 39.8 µM [inhibitor, partial curve, poor fit].
With `COc1ccc(S(=O)(=O)N(Cc2ccco2)Cc2cc3ccccc3[nH]c2=O)cc1` the Potency was inconclusive: 5.01 µM [inhibitor, partial curve, poor fit].
For `COc1ccccc1N1CCN(C(=O)c2nc(SC)ncc2Cl)CC1`, the Potency was inconclusive: 35.5 µM [inhibitor, single point].
For `COc1ccc(N(CC(=O)NCCSCc2ccco2)S(=O)(=O)c2ccc(C)cc2)cc1`, the Potency was inconclusive: 12.6 µM [inhibitor, partial curve, poor fit].
In the case of `CC(C)c1ccc(/C=C/C(=O)NCCCN2CCOCC2)cc1`, the Potency is reported as inconclusive: 3.16 µM [inhibitor, partial curve, poor fit].
For `CCn1c(-c2ccc(C)cc2)nn(CC(=O)NCCc2ccccc2)c1=S`, the Potency was inconclusive: 10 µM [inhibitor, partial curve, poor fit].
In the case of `CCc1nnc(NC(=O)c2c(-c3ccccc3)noc2C)s1`, the activity change, negative = inhibition is reported as inconclusive: 4.42% [activator] [at 46.1 µM].
With `CCOC(=O)N1CCc2c(sc(NCc3sccc3C)c2C(=O)Nc2ccc(OC)cc2OC)C1` the Potency was inconclusive: 7.08 µM [inhibitor, partial curve].
With `COc1ccc(Cl)cc1S(=O)(=O)N1CCCC(C(=O)NCc2ccncc2)C1` (stereo not drawn) the “activity change, negative = inhibition” value was inactive: -1.82%.
For `Cn1ncc2c(N3CCN(c4cccc(Cl)c4)CC3)ncnc21`, the Potency was inconclusive: 31.6 µM [activator, single point].
In the case of `COc1ccc(N(CCC(=O)Nc2ccccc2F)S(=O)(=O)c2ccc(C)cc2C)cc1`, the Potency is reported as inconclusive: 15.8 µM [inhibitor, single point].
With `Cc1cccc(-c2nc(C#N)c(N3CCCCCC3)o2)c1` the “activity change, negative = inhibition” value was inactive: -1.52%.
In the case of `COc1ccc(C(=O)C2CCCN(C(=O)c3ccc(OC)o3)C2)c(C)c1` (stereo not drawn), the Potency is reported as inconclusive: 12.6 µM [inhibitor, partial curve, poor fit].
